Assay [1] addresses Hypoxia-inducible factor-1α (human (endogenous in PANC-1)) (UniProt Q16665). Kind of assay: co-IP; cell lysates incubated with anti-HIF-1α antibodies overnight at 4°C, protein A/G magnetic beads, washed three times with ice-cold PBS; blots with anti-TGF-β and Smad3 antibodies.
Assay [2] addresses Smad3 (human (endogenous in PANC-1)) (UniProt P84022). Kind of assay: co-IP; immunoprecipitation with Smad3 antibody, blot for HIF-1α; normoxic and hypoxic conditions, with and without TGF-β1 stimulation.

Amino acid sequences for entries named in this document (tags omitted). Residues count along the entry.
UniProt Q16665: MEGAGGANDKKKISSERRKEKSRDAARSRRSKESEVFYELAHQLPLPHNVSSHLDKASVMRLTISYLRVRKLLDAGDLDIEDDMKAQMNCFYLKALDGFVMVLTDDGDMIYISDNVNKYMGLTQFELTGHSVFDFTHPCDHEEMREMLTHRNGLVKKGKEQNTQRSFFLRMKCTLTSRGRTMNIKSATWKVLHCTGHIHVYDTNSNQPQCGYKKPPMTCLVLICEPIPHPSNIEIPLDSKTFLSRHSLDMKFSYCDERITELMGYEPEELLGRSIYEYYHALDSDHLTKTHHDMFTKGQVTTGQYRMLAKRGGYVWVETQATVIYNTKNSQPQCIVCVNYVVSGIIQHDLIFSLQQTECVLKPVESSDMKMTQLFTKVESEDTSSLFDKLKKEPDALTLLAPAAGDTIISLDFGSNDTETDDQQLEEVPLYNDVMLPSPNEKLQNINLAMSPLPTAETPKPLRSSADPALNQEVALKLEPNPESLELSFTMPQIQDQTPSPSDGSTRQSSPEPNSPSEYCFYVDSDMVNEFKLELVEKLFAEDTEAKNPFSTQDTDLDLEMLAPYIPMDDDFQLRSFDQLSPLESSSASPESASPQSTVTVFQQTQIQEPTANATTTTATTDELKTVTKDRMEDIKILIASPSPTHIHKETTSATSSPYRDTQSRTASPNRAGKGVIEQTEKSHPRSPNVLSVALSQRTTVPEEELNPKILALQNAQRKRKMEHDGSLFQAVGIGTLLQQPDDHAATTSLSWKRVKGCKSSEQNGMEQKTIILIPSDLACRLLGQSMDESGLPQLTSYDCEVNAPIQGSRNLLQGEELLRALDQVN
UniProt P84022: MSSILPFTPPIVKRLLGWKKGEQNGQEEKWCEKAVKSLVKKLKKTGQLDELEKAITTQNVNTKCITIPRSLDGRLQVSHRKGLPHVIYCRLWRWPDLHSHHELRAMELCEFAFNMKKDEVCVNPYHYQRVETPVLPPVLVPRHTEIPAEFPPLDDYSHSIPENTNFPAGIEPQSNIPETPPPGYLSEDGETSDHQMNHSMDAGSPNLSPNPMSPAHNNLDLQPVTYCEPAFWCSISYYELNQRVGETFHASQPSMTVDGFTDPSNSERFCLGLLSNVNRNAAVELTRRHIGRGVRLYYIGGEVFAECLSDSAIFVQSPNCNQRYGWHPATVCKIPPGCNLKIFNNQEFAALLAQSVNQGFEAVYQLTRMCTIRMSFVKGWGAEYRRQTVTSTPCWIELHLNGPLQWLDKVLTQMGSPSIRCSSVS
UniProt P01137, residues 279-390: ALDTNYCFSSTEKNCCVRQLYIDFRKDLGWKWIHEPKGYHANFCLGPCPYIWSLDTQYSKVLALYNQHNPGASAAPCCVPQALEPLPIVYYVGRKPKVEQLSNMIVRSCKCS

No constants are given. Whether binding was seen depends on the method and setting. In cells and extracts the contact can be indirect. Some entries that bind do so weakly or less than the wild type.

For “Transforming growth factor-β1 (from UniProt P01137 279-390)”, the binding entry in assay [1] was “binds”. Turning to “Hypoxia-inducible factor-1α (from UniProt Q16665 1-826)”, the binding result in assay [2] is reported as “binds”.

Source of the values: PMC12094911.
